Assay results taken from patent publication US20030007968A1, “Methods of inducing organ transplant tolerance and correcting hemoglobinopathies” (priority 2001, published 2003).
Some of these results come from one statement about several compounds together.

By UniProt entry, the sequences of proteins in these tests, tags left out. Chains listed by the source or under a name are the forms on record and can include a tag or linker.
UniProt P42081, with tags, fused parts or gaps limits assumed: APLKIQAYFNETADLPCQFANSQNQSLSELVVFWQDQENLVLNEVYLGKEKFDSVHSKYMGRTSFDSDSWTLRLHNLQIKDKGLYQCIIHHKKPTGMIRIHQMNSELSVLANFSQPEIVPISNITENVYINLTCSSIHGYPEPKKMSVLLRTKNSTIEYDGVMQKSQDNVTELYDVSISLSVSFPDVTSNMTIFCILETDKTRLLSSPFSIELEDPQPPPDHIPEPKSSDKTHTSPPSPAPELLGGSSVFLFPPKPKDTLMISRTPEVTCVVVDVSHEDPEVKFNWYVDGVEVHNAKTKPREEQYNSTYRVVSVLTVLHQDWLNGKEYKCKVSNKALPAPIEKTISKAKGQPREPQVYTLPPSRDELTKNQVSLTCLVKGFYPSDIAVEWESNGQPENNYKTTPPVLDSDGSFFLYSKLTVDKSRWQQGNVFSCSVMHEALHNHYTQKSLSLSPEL

B1: L104EA29YXC120S: single chain (monomeric) L104EA29Y extracellular domain with cysteine 120 to serine mutation (protein)
chain: MHVAQPAVVLASSRGIASFVCEYASPGKYTEVRVTVLRQADSQVTEVCAATYMMGNELTFLDDSICTGTSSGNQVNLTIQGLRAMDTGLYICKVELMYPPPYYEGIGNGTQIYVIDPEPSPDSD

Molecular target: T1, CD86Ig (Homo sapiens, UniProt P42081)
T1 construct: Ig (immunoglobulin fusion partner)
Assay: BIAcore surface plasmon resonance equilibrium and kinetic binding to immobilized CD86Ig
Conditions: single chain C120S constructs
Description: To synthesize and screen soluble CTLA4 mutant molecules with altered affinities for a B7 molecule (e.g. CD80, CD86), a two-step strategy was adopted. The experiments entailed first generating a library of mutations at a specific codon of an extracellular portion of CTLA4 and then screening these by BIAcore analysis to identify mutants with altered reactivity to B7. The Biacore assay system (Pharmacia, Piscataway, N.J.) uses a surface plasmon resonance detector system that essentially involves covalent binding of either CD80Ig or CD86Ig to a dextran-coated sensor chip which is located in a detector. The test molecule can then be injected into the chamber containing the sensor chip and the amount of complementary protein that binds can be assessed based on the change in molecular mass which is physically associated with the dextran-coated side of the sensor chip; the change in molecular mass can be measured by the detector system.
COS cells were transfected with individual miniprep purified plasmid DNA and propagated for several days. […] The specific binding and dissociation of mutant proteins was measured by surface plasmon resonance (O'Shannessy, D. J., et al., 1997 Anal. Biochem. 212:457-468). […]
Senosorgram baselines were normalized to zero response units (RU) prior to analysis. […] Binding curves were analyzed using commercial nonlinear curve-fitting software (Prism, GraphPAD Software). […]

Row | Molecule | binding affinity of monomeric protein for CD86Ig less than respective dimer
1 | CTLA4XC120S: single chain (monomeric) CTLA4 extracellular domain with cysteine 120 to serine mutation [reference compound] | 35-80 fold
2 | B1 | 35-80 fold
